We go through two substances from patent publication US7960349B2 (Bristol-Myers Squibb Company, priority 2006, dated 2011).

Some peptides are written in HELM: one residue between dots, names in brackets for other building blocks, links after the first $.

A short description of series [1]: general procedure: Fmoc solid-phase peptide synthesis; Rink amide MBHA, Sieber amide or PAL resin; 2-chlorotrityl chloride resin for protected fragments; DIC/HOAt; HBTU/HOBt/DIEA; HATU/HOAt. Conditions: whole synthesis, scale of the general procedure 0.1 mmol (ABI 433A).
A short description of series [2]: general procedure: Fmoc solid-phase peptide synthesis; Sieber amide; DIC/HOAt; HBTU/HOBt/DIEA; HATU/HOAt. The settings on record: whole synthesis.

Take “PEPTIDE1{H.[aMePro].E.G.T.[aMePhe(2-F)].T.H.D.[Bip(2'-Et-4'-OMe)].[4-(2'-MePh)-3-PyrAla].[am]}$$$$V2.0”: the isolated yield in series [1] was determined as 42%. This substance also displayed an isolated mass in series [2] (scale 0.05 mmol) of 21.7 mg.
With “PEPTIDE1{H.[NMe-D-Ala].E.G.T.[aMe-Phe(2-F)].T.S.D.[Bip(2'-Et-4'-OMe)].[4-(2'-MePh)-3-PyAla].[am]}$$$$V2.0”, the isolated yield in series [1] amounted to 18.5%. Moreover, the isolated mass in series [2] (scale 0.015 mmol) is given as 5.2 mg.
